Results published in patent US8759520B2, “Compounds for treating cancer” (Boehringer Ingelheim International GmbH, priority 2008, dated 2014).

Amino acid sequences for entries named in this document (tags omitted).
UniProt P10415, whole entry: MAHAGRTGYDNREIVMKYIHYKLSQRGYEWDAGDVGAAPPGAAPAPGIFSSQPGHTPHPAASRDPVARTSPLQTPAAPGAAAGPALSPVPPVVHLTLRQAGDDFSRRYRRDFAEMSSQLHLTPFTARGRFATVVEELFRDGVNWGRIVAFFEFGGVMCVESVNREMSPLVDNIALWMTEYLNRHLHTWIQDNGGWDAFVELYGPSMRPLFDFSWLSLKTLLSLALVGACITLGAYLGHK

Biological target: Bcl-2 (Homo sapiens, UniProt P10415)
Assay: Homogeneous HTS assay for inhibitors of the Bcl-2 : Bak (72-87) BH3 domain interaction, fluorescence polarisation (2D-FIDA)
Type: binding
Settings: read-out: IC50 [μM] Bcl-2, fluorescent labelled Bak BH3 domain derived peptide
Source text: FIG. 1 is a schematic drawing of the Bcl-2: Bak (72-87) interaction assay based on fluorescence polarisation.
The homogeneous HTS assay for inhibitors of the Bcl-2 is shown schematically in FIG. 1. BH3 domain interaction is based on fluorescence polarisation. The inherent rotational diffusion of the Bak BH3 domain derived fluorescent labelled peptide decreases upon binding to Bc1-2. This shift in rotational diffusion is quantitated using the two-dimensional fluorescence intensity distribution analysis (2D-FIDA; Kask et al. 2000, Biophys. J. 78: 1703-1713).
Two different BH3 domain derived peptide ligands were synthesised and subsequently fluorescently labelled: • a 16mer peptide covering amino acids 72-87 of the Bak protein; this peptide had been used by Wang and co-workers and Holinger and coworkers in their Bcl-2 protein binding studies; Wang and co-workers reported an equilibrium binding constant KD of ˜0.2 μM to Bcl-2 protein; • peptide sequence: GQVGRQLAIIGDDINR—N (Wang et al. 2002, Proc. Natl. Acad. Sci. U.S.A. 97: 7124-7129; Holinger et al. 1999, J. Biol. Chem. 274: 13298-13304).

CC(C)(C)C(=O)Cn1c(=N)n(Cc2ccccc2)c2ccccc21
IC50: > 100 µM

The structures given here were assigned with low confidence; some may be wrong.
